Measured values reported in the supplement of paper PMC11060735.
Values joined by “and” are separate entries in the source; they are usually repeats but may differ in a detail not shown here. Equal entries are not always repeated. Structures can show the parent of a compound that is named as a salt. ± gives the standard deviation of the averaged measurements. Whole data set: some 1,800 compounds, median “GFP- (p16Ink4a-) cell count relative to negative-control wells” near 0.99, cut for the lowest 2% near 0.5. Some of the results follow.

system: mouse p16Ink4a+/- lung fibroblasts (INKBRITE, bleomycin-injured); test: GFP- (p16Ink4a-) cell count relative to negative-control wells (fold of vehicle); higher = more p16Ink4a- cells surviving; conditions: 1 µM; 3 days

SMILES	GFP-
C[C@](O)(COc1ccc(C#N)cc1)C(=O)Nc1ccc(C#N)c(C(F)(F)F)c1	1.08
CCC(COC(=O)c1cc(OC)c(OC)c(OC)c1)(c1ccccc1)N(C)C (stereo unspecified) [Trimebutine]	1
C=CC[C@]1(O)CC[C@H]2[C@@H]3CCC4=CC(=O)CCC4=C3C=C[C@@]21C [Altrenogest]	0.943
N[C@@H]1C[C@H]1c1ccccc1 [Tranylcypromine (2-PCPA) HCl]	0.967 ± 0.083
O=c1ccc2cc(O[C@@H]3O[C@H](CO)[C@@H](O)[C@H](O)[C@H]3O)c(O)cc2o1 [Esculin]	1.19
NCC(O)c1ccc(O)cc1 (racemic) [(¬±)-octopamine Hydrochloride, Octopamine Hydrochloride]	1
Cc1cccc(C)c1NC1=NCCCS1 [Xylazine Hydrochloride, Xylazine]	1.04
C1=C2CCCN[C@H]2[C@@H]2C[C@H]1[C@H]1CCCCN1C2 [Aloperine]	0.98
CNCC(=O)c1ccc(O)c(O)c1 [Adrenolone Hydrochloride]	1.05
CC(C)N(CCNC(=O)CN1CCCC1=O)C(C)C [Pramiracetam]	1.12
CCOc1ccccc1-n1c(C(C)N2CCN(C(=O)COc3ccc(Cl)cc3)CC2)nc2ccccc2c1=O (stereo unspecified) [Erastin]	0.31
COC(=O)C1=CCCN(C)C1 [Arecoline]	0.954
Cc1cc2c(C(C)C)c(O)c(O)c(C=O)c2c(O)c1-c1c(C)cc2c(C(C)C)c(O)c(O)c(C=O)c2c1O [Gossypol]	0.665 and 0.706
CCN(C)C(=O)Oc1cccc([C@H](C)N(C)C)c1 [Rivastigmine]	1
Cc1ccc(-n2nccn2)c(C(=O)N2CCN(c3nc4cc(Cl)ccc4o3)CC[C@H]2C)c1 [Suvorexant]	1.13
CCCC[N+]1(C)[C@@H]2C[C@@H](OC(=O)[C@H](CO)c3ccccc3)C[C@H]1[C@@H]1O[C@@H]12 (stereo partly specified) [Scopolamine butylbromide]	1.13
COc1ccc(C(=O)N2CCCC2=O)cc1 [Aniracetam]	0.968
O=S(=O)(F)Cc1ccccc1	0.899
Cn1cc(C2=C(c3cn(C4CCN(Cc5ccccn5)CC4)c4ccccc34)C(=O)NC2=O)c2ccccc21 [Enzastaurin]	0.807
CN1[C@@H]2C[C@@H](O)C[C@H]1[C@@H]1O[C@@H]12 [Scopine HCl]	1.11 and 1.08
C=C1C[C@@H]2[C@H](CC[C@]3(C)C(=O)CC[C@@H]23)[C@@]2(C)C=CC(=O)C=C12 [Exemestane]	1.13
NCCc1c[nH]c2ccc(O)cc12 [Serotonin Hydrochloride]	1.06
O=C1CC[C@@]2(O)[C@H]3Cc4ccc(O)c5c4[C@@]2(CCN3CC2CC2)[C@H]1O5 [Naltrexone;  _x000D_  naltrexone depot]	0.877
CCC1=C[C@@H]2CN3CCc4c([nH]c5ccccc45)[C@@](C(=O)OC)(C2)[C@@H]13 [Catharanthine]	1.02

SMILES	GFP-
CN1CCC(c2c[nH]c3ccc(O)cc23)CC1	1.02
O=C1CCC[C@@H]2[C@H]3CCCN4CCC[C@@H](CN12)[C@@H]34 [(+)-Matrine]	0.954
NC(=O)CN1CCCC1=O [Piracetam]	0.979
C[C@@H]1CC[C@@]2(OC1)O[C@H]1C[C@H]3[C@@H]4CC=C5C[C@@H](O[C@@H]6O[C@H](CO)[C@@H](O[C@@H]7O[C@@H](C)[C@H](O)[C@@H](O)[C@H]7O)[C@H](O)[C@H]6O[C@@H]6O[C@@H](C)[C@H](O)[C@@H](O)[C@H]6O)CC[C@]5(C)[C@H]4CC[C@]3(C)[C@H]1[C@@H]2C [Dioscin]	1.03
CN1C2CCC1CC(OC(=O)[C@H](CO)c1ccccc1)C2 (stereo partly specified) [Hyoscyamine]	1.21
Cc1cccc(C(C)c2c[nH]cn2)c1C (stereo unspecified) [Medetomidine HCl]	1.16
CN1[C@@H]2CC[C@H]1C[C@@H](OC(=O)C(CO)c1ccccc1)C2 (stereo partly specified) [Atropine]	0.843
CC(=O)OCC1=C(C(=O)O)N2C(=O)[C@H](N)[C@H]2SC1 [7-Aminocephalosporanic acid]	1.1
CCC1(c2cccc(O)c2)CCCCN(C)C1 (stereo unspecified) [Meptazinol HCl]	1
C[C@@H]1O[C@@H](O[C@H]2C[C@@H](O)[C@]3(CO)[C@H]4[C@H](O)C[C@]5(C)[C@@H](C6=CC(=O)OC6)CC[C@]5(O)[C@@H]4CC[C@]3(O)C2)[C@H](O)[C@H](O)[C@H]1O [Ouabain]	0.953
C/C(=C\c1csc(C)n1)[C@@H]1C[C@@H]2O[C@@H]2CCC[C@H](C)[C@H](O)[C@@H](C)C(=O)C(C)(C)[C@@H](O)CC(=O)O1 [Epothilone A]	0.423
C=CCN1CC[C@]23c4c5ccc(O)c4O[C@H]2C(=O)CC[C@@]3(O)[C@H]1C5 [Naloxone]	1.04
COc1cc(OC)c(OC)cc1C=O [Asarylaldehyde]	0.887
Cc1cc(C(=O)CN2CCCC2)c(C)n1-c1ccc(F)cc1	0.961
C[C@]12CC[C@H](O)C[C@@H]1CC[C@@H]1[C@@H]2CC[C@]2(C)C(=O)CC[C@@H]12 [Epiandrosterone]	0.976
CC(=O)Nc1ccc(Cc2ccc(NC(C)=O)cc2)cc1	0.997
Nc1nc(N)nc(NC2CC2)n1 [Cyromazine]	1.1
c1ccc2c(c1)sc1ccccc12 [Dibenzothiophene]	0.972
CC(O)(CS(=O)(=O)c1ccc(F)cc1)C(=O)Nc1ccc(C#N)c(C(F)(F)F)c1 (stereo unspecified) [(r)-bicalutamide, Bicalutamide]	0.96
Cc1cc(O)ccc1Cl [Chlorocresol]	0.925
COc1cc(-n2c(=S)[nH]c3ccccc3c2=O)c(Cl)cc1Cl [Mdivi-1]	1.12
Cc1cc(C(C#N)c2ccc(Cl)cc2)c(Cl)cc1NC(=O)c1cc(I)cc(I)c1O (stereo unspecified) [Closantel]	0.99 and 0.986
Cc1cccc([C@H](C)c2c[nH]cn2)c1C [Dexmedetomidine]	1.06
O=C(Oc1ccc([N+](=O)[O-])cc1)N1CCC(C(O)(c2ccc3c(c2)OCO3)c2ccc3c(c2)OCO3)CC1	0.875

Three entries from above, sorted by formula weight, largest number first:
SMILES	GFP-
Cc1cc(C(C#N)c2ccc(Cl)cc2)c(Cl)cc1NC(=O)c1cc(I)cc(I)c1O (stereo unspecified) [Closantel]	0.99 and 0.986
C[C@@H]1O[C@@H](O[C@H]2C[C@@H](O)[C@]3(CO)[C@H]4[C@H](O)C[C@]5(C)[C@@H](C6=CC(=O)OC6)CC[C@]5(O)[C@@H]4CC[C@]3(O)C2)[C@H](O)[C@H](O)[C@H]1O [Ouabain]	0.953
COc1cc(-n2c(=S)[nH]c3ccccc3c2=O)c(Cl)cc1Cl [Mdivi-1]	1.12

Additional records:

SMILES	GFP-
COc1ccc(CC2NCCc3cc(OC)c(OC)cc32)cc1OC (stereo unspecified) [Tetrahydropapaverine HCl]	0.842
O=P1(NCCCl)OCCCN1CCCl (stereo unspecified) [Ifosfamide]	1.04
COc1ccc(C(CN(C)C)C2(O)CCCCC2)cc1 (stereo unspecified) [Venlafaxine, Venlafaxine Hydrochloride]	1.08
O=C(O)c1nn(Cc2ccc(Cl)cc2Cl)c2ccccc12 [Lonidamine]	1.01
C/C=C(\C)C(=O)N[C@@H](c1ccccc1)[C@@H](O)C(=O)O[C@H]1C[C@@]2(O)[C@@H](OC(=O)c3ccccc3)[C@@H]3[C@]4(OC(C)=O)CO[C@@H]4C[C@H](O)[C@@]3(C)C(=O)[C@H](OC(C)=O)C(=C1C)C2(C)C [Cephalomannine]	0.683
C[N+]1(C)[C@@H]2C[C@@H](OC(=O)[C@H](CO)c3ccccc3)C[C@H]1[C@@H]1O[C@@H]12 [Methscopolamine Bromide]	1.03
Oc1nc2ccc(Cl)cc2c(N[C@@H]2CN3CCC2CC3)c1-c1nc2ccccc2[nH]1	0.944
C[N+](C)(C)CCCCCCCCCC[N+](C)(C)C [Decamethonium]	0.868
C[C@@H]1[C@H](O)[C@@H](C)/C=C/C=C/CC/C=C/C=C/C=C/C=C/[C@H](O[C@H]2O[C@@H](C)[C@H](O)[C@@H](N)[C@H]2O)C[C@@H]2O[C@](O)(C[C@@H](O)[C@H](O)CC[C@@H](O)C[C@@H](O)C[C@@H](O)CC(=O)O[C@H]1C)C[C@H](O)[C@H]2C(=O)O [Nystatin (Fungicidin)]	0.951
CC(C)(C)[C@]1(O)C[C@@H]2OC(=O)C[C@@]23C(=O)O[C@@H]2OC(=O)[C@H](O)C213 (stereo partly specified) [Bilobalide]	0.96
C=C[C@H]1CN2CCC1C[C@H]2[C@H](O)c1ccnc2ccccc12 (stereo partly specified) [Cinchonidine]	1.09
Cc1ccccc1-n1c(Cn2ncc3c(N)ncnc32)nc2cccc(C)c2c1=O	1.04
CN(C)Cc1c[nH]c2ccccc12 [Gramine]	1.12
CCN1CCN(C(=O)Cc2ccc(Nc3ncc(F)c(Nc4ccc(C(=O)Nc5ccccc5Cl)cc4)n3)cc2)CC1 [Aurora A Inhibitor I]	0.961 ± 0.071
CN1CCc2cc3c(cc2[C@H]1[C@@H]1OC(=O)c2c1ccc1c2OCO1)OCO3 [Bicuculline]	1.12
CN1CCCCC1Cn1cc(C(=O)c2cc([N+](=O)[O-])ccc2I)c2ccccc21 (stereo unspecified)	1.09
C[C@]12CC[C@H](O)CC1=CC[C@@H]1[C@@H]2CC[C@]2(C)C(=O)CC[C@@H]12 [Prasterone]	1.19
CC[C@H](C(=O)[C@H](C)[C@@H](O)[C@@H](C)[C@@H]1O[C@@H]([C@@H](CC)C(=O)O)CC[C@H]1C)[C@H]1O[C@]2(C=C[C@@H](O)[C@]3(CC[C@@](C)([C@H]4CC[C@](O)(CC)[C@H](C)O4)O3)O2)[C@H](C)C[C@H]1C [Salinomycin]	0.714
C[C@]12CC[C@H]3[C@@H](CC[C@@]45O[C@@H]4C(O)=C(C#N)C[C@]35C)[C@@H]1CC[C@@H]2O [Trilostane]	0.98
Cc1cc(SCc2sc(-c3ccc(C(F)(F)F)c(F)c3)nc2C)ccc1OCC(=O)O	1.02
CC(C)[C@]12O[C@H]1[C@@H]1O[C@]13[C@]1(O[C@H]1C[C@H]1C4=C(CC[C@@]13C)C(=O)OC4)[C@@H]2O [Triptolide]	0.366
CCN(CC)C(=O)c1ccc(C2=CC3(CCNCC3)Oc3cccc(O)c32)cc1	0.95
CCc1c(C(=O)C(N)=O)c2c(OCC(=O)O)cccc2n1Cc1ccccc1 [Varespladib]	1.27

Given in markdown: entries from further up

| SMILES | GFP- |
| --- | --- |
| CN1CCC(c2c[nH]c3ccc(O)cc23)CC1 | 1.02 |
| CCC1(c2cccc(O)c2)CCCCN(C)C1 (stereo unspecified) [Meptazinol HCl] | 1 |
| Cc1cc(C(=O)CN2CCCC2)c(C)n1-c1ccc(F)cc1 | 0.961 |
| Cc1cccc([C@H](C)c2c[nH]cn2)c1C [Dexmedetomidine] | 1.06 |
